This assay addresses TRIM36 PRYSPRY domain (human) (UniProt Q9NQ86). Description: crystal structure; sitting-drop vapor diffusion at 20 °C; isolated PRYSPRY domains, contacts between chains of the asymmetric unit; both purified.

Results are given in words; binding and its absence hold for the method and conditions named. Some results given as binding are weak or reduced against the parent protein; the word gives no strength.

B1: TRIM36 PRYSPRY domain (domain or fragment, human)
chain: TPPAPVFSFLFDEKCGYNNEHLLLNLKRDRVESRAGFNLLLAAERIQVGYYTSLDYIIGDTGITKGKHFWAFRVEPYSYLVKVGVASSDKLQEWLRSPRDAVSPRYEQDSGHDSGSEDACFDSSQPFTLVTIGMQKFFIPKSPTSSNEPENRVLPMPTSIGIFLDCDKGKVDFYDMDQMKCLYERQVDCSHTLYPAFALMGSGGIQLEEPITAKYLEYQEDM
notes: PRYSPRY domain of human TRIM36, with an additional C-terminal helix; theoretical MW of the dimer 52.4 kDa; Cloned into pNIC-CTH0; also called TRIM36 domain
For B1, the binding entry is “binds”.

Values taken from article PMC12355088, “Structural analysis of TRIM family PRYSPRY domains and its implications for E3-ligand design” (Journal of Structural Biology: X, 2025).
